Laboratory results published in publication PMC10127071.

Target: Rsrc1-161aa-eGFP (mouse)
Assay: affinity purification with mass spectrometry; immunoprecipitation with anti-GFP antibodies from GC-1 spg cells overexpressing Rsrc1-161aa-eGFP (eGFP as negative control); silver staining, differential gel bands excised and detected by mass spectrometry

B1: Complement component 1, q subcomponent binding protein (protein, UniProt O35658 71-278)
chain: LHTEGDKAFVEFLTDEIKEEKKIQKHKSLPKMSGDWELEVNGTEAKLLRKVAGEKITVTFNINNSIPPTFDGEEEPSQGQKAEEQEPERTSTPNFVVEVTKTDGKKTLVLDCHYPEDEIGHEDEAESDIFSIKEVSFQATGDSEWRDTNYTLNTDSLDWALYDHLMDFLADRGVDNTFADELVELSTALEHQEYITFLEDLKSFVKNQ
B1 was tested, and the binding was “binds”.

These are yes or no findings as the source states them, for the method shown. Binding seen in cells or lysates may run through a third protein. Here binding means that the protein was enriched with, or labelled near, the bait; the list need not be complete.
